Experimental data: PubChem BioAssay AID686937 (Drosophila RNAi Screening Center, 2013)

- Test: 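Genes whose loss weakens secretory pathway function in fly cells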 (primary screen)
- Cells: Drosophila S2 cells expressing secreted horseradish peroxidase
- Reagents: long dsRNA against Drosophila genes
- Timing: about 5.5 days (5 days dsRNA, then 12 h reporter induction)
- Treatment: reporter expression induced after 5 days of dsRNA, read 12 h later; inducer not stated
- Measured: 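Chemiluminescent measurement of peroxidase in the medium 12 h after reporter induction, following 5 days of dsRNA, given as a z-score per plate; higher means more secretion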
- Scale: z-score: higher = more reporter secreted into medium
The screen tested about 23,000 reagents; this is a random part of those that have a named target and a result. 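Reduced-secretion tags in replicate 1 do not always agree with the z-scores; no criterion for assigning the tags was given.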 The numbers tell different reagents against one gene apart. Names joined by + are all predicted targets of the reagent. Not given: the amount of reagent.

Gene	dsRNA no.	z-score, replicate 1	z-score, replicate 2	z-score, replicate 3	z-score, replicate 4	phenotype, replicate 1
Ntan1 (N-terminal amidohydrolase 1)	1	0.34	0.38			
CG11474	1	0.36	0.26			
Klp31E (Kinesin-like protein at 31E)	1	0.12	0.17			
CG8004	1	0.17	0.24			
Naam (Nicotinamide amidase)	1	0.33	0.39			
dx (deltex)	1	0.29	0.42			
Jon25Biii (Jonah 25Biii)	1	0.15	0.16			
CG5510	1	-0.12	0.16			
CG18735	1	-0.09	0.24			
CG14342	1	0.3	0.44			
Hcf (Host cell factor)	1	0.55	0.4			
CG32280	1	0.53	0.28			
CG6654	1	0.5	0.42			
CG11398	1	0.29	0.27			
Jon65Aiii (Jonah 65Aiii)	1	0.36	0.23			
sim (single-minded)	1	0.21	-1.02			
CG31823	1	0.11	0.19			
CG15734	1	0.14	0.44			
CG13245	1	0.39	0.26			
Mulk (Multi-substrate lipid kinase)	1	0.41	0.33			
CG7222	1	0.13	0.3			
CG7309	1	0.18	0.17			
CG42580	1	0.54	0.51			
CG5103	1	0.3	0.28			
Eip75B (Ecdysone-induced protein 75B)	1	0.26	0.14			
Eip75B (Ecdysone-induced protein 75B)	2	-0.22	-0.28			
VAChT (Vesicular acetylcholine transporter)	1	0.24	0.33			
VAChT (Vesicular acetylcholine transporter)	2	0.12	0.38			
CG31730	1	0.51	0.08			
CG15739	1	0.29	0.4			
dimm (dimmed)	1	0.08	0.28			
Ilp8 (Insulin-like peptide 8)	1	0.54	0.28			
ND-51L1 (NADH dehydrogenase (ubiquinone) 51 kDa subunit-like 1)	1	0.1	0.29			
Cyt-b5-r (Cytochrome b5-related)	1	0.76	0.64			
wntD (wnt inhibitor of Dorsal)	1	0.36	0.38			
CG6293	1	0.38	0.16			
Tig (Tiggrin)	1	-0.73	-0.87			
glec (gliolectin)	1	0.25	0.39			
Mabi (Mabiki)	1	0.01	0.28	-0.15	0.17	
CG30008	1	0.2	0.52			
Wee1 (Wee1 kinase)	1	-0.24	-0.13			
Osi21 (Osiris 21)	1	0.47	0.16			
Rgl (Ral guanine nucleotide dissociation stimulator-like)	1	0.28	-0.04			
CG13337	1	0.36	0.24			
CG8916	1	0.34	0.45			
CG7691	1	0.09	0.27			
CG6424	1	0.35	0.26			
CG11788	1	0.19	0.06			
escl	1	0.09	0.35			
SP (Sex Peptide)	1	0.35	-0.16			
coro (Coronin)	1	0.1	0.25			
coro (Coronin)	2	0.14	0.5			
Adat1 (Adenosine deaminase, tRNA-specific 1)	1	-0.31	-0.12			
CG31550	1	0.15	0.44			
CG31550	2	0.51	0.39			
EMC2B (ER membrane protein complex subunit 2B)	1	-0.12	-1			
Alp5 (Alkaline phosphatase 5)	1	0.31	0.39			
CG17807	1	0.22	0.23			
CG12182	1	-0.03	0.44			
CG3909	1	0.18	-0.54			
Lim3	1	0.41	0.54			
Lim3	2	-3.23	-1.2			reduced secretion
Lim3	3	-0.69	-1.82			reduced secretion
Lim3	4	-0.2	0.36			
CG31819	1	0.37	0.47			
CG13887	1	0.46	0.42			
CG2875	1	0.06	0.07			
eyg (eyegone)	1	-2.17	-3.02			reduced secretion
Reg-2 (Rhythmically expressed gene 2)	1	0.25	0.33			
VhaM9.7-c (Vacuolar H[+] ATPase M9.7 subunit c)	1	0.33	0.37			
CG6951	1	0.05	0.29			
MBD-R2	1	-1.75	-0.78			reduced secretion
Fbxo42 (F-box protein 42)	1	-0.35	-0.02			
l(2)41Ab (lethal (2) 41Ab)	1	-0.09	0.32			
CG43277	1	0.54	-0.94			
CG40245 (retired record)	1	0.04	0.19			
CG34135 + Nasp + CG11768	1	0.41	0.57			
CG34135 + Nasp + CG11768	2	-1.62	-0.47			reduced secretion
CG12241	1	-0.3	-0.09			
CG15019	1	0.18	0.44			
CG11858	1	0.24	0.16	0.25	0.6	
CG14478	1	0.24	0.23			
CG12986	1	0.12	0.43			
krimp (krimper)	1	0.12	0.24			
CG42650	1	0.03	0.28			
Ser8	1	0.29	0.23			
GABA-B-R1 (metabotropic GABA-B receptor subtype 1)	1	0	0.27			
CG1812	1	0.42	0.54			
PyK (Pyruvate kinase)	1	0.3	0.33			
CG15177	1	0.28	0.01			
ttm50 (tiny tim 50)	1	0.39	0.18			
CG11529	1	-0.1	0.18			
MED28 (Mediator complex subunit 28)	1	-3.7	-3.09			reduced secretion
CG12659	1	0.07	0.55			
Or56a (Odorant receptor 56a)	1	0.43	0.33			
Rexo5 (RNA exonuclease 5)	1	-0.17	0.11			
M1BP (Motif 1 Binding Protein)	1	-2.36	-2.69			reduced secretion
mEFTu1 (mitochondrial translation elongation factor Tu 1)	1	-0.05	-0.14			
Fgop2 (Fibroblast growth factor receptor 1 oncogene partner 2)	1	-0.6	-0.81			
Srp54 (Splicing regulatory protein 54)	1	-1.37	-0.35			
CG11109	1	0.37	0.51			
uno (univalents only)	1	0.4	0.46			
Cep290 (Centrosomal protein 290kDa)	1	0.29	0.39			
gprs	1	-0.03	0.17			
